Test results reported in the supplement of paper PMC8728848.
The list shows a part of the results.

Tests used:
Assay in all cases: glycan array binding signal (z-score within array); higher = stronger binding
Conditions in all cases: glycan notation: IUPAC condensed, linker removed
[1] = target: Gal(b1-4)GalNAc(b1-3)[Fuc(a1-2)]Gal(b1-4)GlcNAc
Method in brief: (§1)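 Columns mapping to the same glycan were averaged after glycan names were converted to IUPAC-condensed notation. The data come from 3228 arrays in the Consortium for Functional Glycomics database, limited to those with an available protein sequence. Binding is reported as a within-array Z-score averaged across arrays of one protein sequence and across linkers.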

[2] = target: Gal(b1-4)Glc
Method in brief: as §1

[3] = target: Gal(b1-4)Glc6S
Method in brief: as §1

[4] = target: Gal(b1-4)GlcNAc
Method in brief: as §1

[5] = target: Gal(b1-4)GlcNAc(a1-6)Gal(b1-4)GlcNAc
Method in brief: as §1

[6] = target: Gal(b1-4)GlcNAc(b1-2)Man(a1-3)Man(b1-4)GlcNAc(b1-4)GlcNAc
Method in brief: as §1

[7] = target: Gal(b1-4)GlcNAc(b1-2)Man(a1-3)[Gal(b1-4)GlcNAc(b1-2)Man(a1-6)]Man(b1-4)GlcNAc(b1-4)GlcNAc
Method in brief: as §1

[8] = target: Gal(b1-4)GlcNAc(b1-2)Man(a1-3)[Gal(b1-4)GlcNAc(b1-2)Man(a1-6)]Man(b1-4)GlcNAc(b1-4)[Fuc(a1-6)]GlcNAc
Method in brief: as §1

[9] = target: Gal(b1-4)GlcNAc(b1-2)Man(a1-3)[GlcNAc(b1-2)Man(a1-6)]Man(b1-4)GlcNAc(b1-4)GlcNAc
Method in brief: as §1

[10] = target: Gal(b1-4)GlcNAc(b1-2)Man(a1-3)[Man(a1-6)]Man(b1-4)GlcNAc(b1-4)GlcNAc
Method in brief: as §1

[11] = target: Gal(b1-4)GlcNAc(b1-2)Man(a1-6)Man(b1-4)GlcNAc(b1-4)GlcNAc
Method in brief: as §1

[12] = target: Gal(b1-4)GlcNAc(b1-2)Man(a1-6)[GlcNAc(b1-2)Man(a1-3)]Man(b1-4)GlcNAc(b1-4)GlcNAc
Method in brief: as §1

[13] = target: Gal(b1-4)GlcNAc(b1-2)Man(a1-6)[Man(a1-3)]Man(b1-4)GlcNAc(b1-4)GlcNAc
Method in brief: as §1

[14] = target: Gal(b1-4)GlcNAc(b1-2)[Gal(b1-4)GlcNAc(b1-4)]Man(a1-3)[Gal(b1-4)GlcNAc(b1-2)Man(a1-6)]Man(b1-4)GlcNAc(b1-4)GlcNAc
Method in brief: as §1

[15] = target: Gal(b1-4)GlcNAc(b1-2)[Gal(b1-4)GlcNAc(b1-4)]Man(a1-3)[Gal(b1-4)GlcNAc(b1-2)[Gal(b1-4)GlcNAc(b1-6)]Man(a1-6)]Man(b1-4)GlcNAc(b1-4)GlcNAc
Method in brief: as §1

[16] = target: Gal(b1-4)GlcNAc(b1-3)Gal(b1-3)GlcNAc
Method in brief: as §1

[17] = target: Gal(b1-4)GlcNAc(b1-3)Gal(b1-4)Glc
Method in brief: as §1

[18] = target: Gal(b1-4)GlcNAc(b1-3)Gal(b1-4)GlcNAc
Method in brief: as §1

[19] = target: Gal(b1-4)GlcNAc(b1-3)Gal(b1-4)GlcNAc(b1-3)Gal(b1-4)GlcNAc
Method in brief: as §1

[20] = target: Gal(b1-4)GlcNAc(b1-3)Gal(b1-4)[Fuc(a1-3)]GlcNAc(b1-3)Gal(b1-4)[Fuc(a1-3)]GlcNAc
Method in brief: as §1

[21] = target: Gal(b1-4)GlcNAc(b1-3)GalNAc
Method in brief: as §1

[22] = target: Gal(b1-4)GlcNAc(b1-3)[Gal(b1-4)GlcNAc(b1-6)]Gal(b1-4)GlcNAc
Method in brief: as §1

[23] = target: Gal(b1-4)GlcNAc(b1-3)[Gal(b1-4)GlcNAc(b1-6)]GalNAc
Method in brief: as §1

[24] = target: Gal(b1-4)GlcNAc(b1-3)[GlcNAc(b1-6)]Gal(b1-4)GlcNAc
Method in brief: as §1

[25] = target: Gal(b1-4)GlcNAc(b1-6)Gal(b1-4)GlcNAc
Method in brief: as §1

[26] = target: Gal(b1-4)GlcNAc(b1-6)Gal(b1-4)GlcNAc(b1-6)GalNAc
Method in brief: as §1

[27] = target: Gal(b1-4)GlcNAc(b1-6)GalNAc
Method in brief: as §1

[28] = target: Gal(b1-4)GlcNAc(b1-6)[Gal(b1-3)]GalNAc
Method in brief: as §1

[29] = target: Gal3S(b1-3)GalNAc
Method in brief: as §1

[30] = target: Gal3S(b1-3)GlcNAc
Method in brief: as §1

[31] = target: Gal3S(b1-3)[Fuc(a1-4)]GlcNAc
Method in brief: as §1

[32] = target: Gal3S(b1-4)Glc
Method in brief: as §1

[33] = target: Gal3S(b1-4)Glc6S
Method in brief: as §1

[34] = target: Gal3S(b1-4)GlcNAc
Method in brief: as §1

[35] = target: Gal3S(b1-4)GlcNAc6S
Method in brief: as §1

[36] = target: Gal3S(b1-4)[Fuc(a1-3)]Glc
Method in brief: as §1

[37] = target: Gal3S(b1-4)[Fuc(a1-3)]Glc6S
Method in brief: as §1

[38] = target: Gal3S4S(b1-4)GlcNAc
Method in brief: as §1

[39] = target: Gal3S6S(b1-4)GlcNAc
Method in brief: as §1

[40] = target: Gal3S6S(b1-4)GlcNAc6S
Method in brief: as §1

[41] = target: Gal4S(b1-4)GlcNAc
Method in brief: as §1

[42] = target: Gal4S6S(b1-4)GlcNAc
Method in brief: as §1

[43] = target: Gal6S(b1-4)Glc
Method in brief: as §1

[44] = target: Gal6S(b1-4)Glc6S
Method in brief: as §1

[45] = target: Gal6S(b1-4)GlcNAc
Method in brief: as §1

B1: SBD (Rhizopus oryzae), P07683 (protein)
chain: ASIPSSASVQLDSYNYDGSTFSGKIYVKNIAYSKKVTVVYADGSDNWNNNGNIIAASFSGPISGSNYEYWTFSASVKGIKEFYIKYEVSGKTYYDNNNSANYQVS
glycan array binding signal (z-score) [1]: 0.033
glycan array binding signal (z-score) [2]: -0.248
glycan array binding signal (z-score) [3]: 0.109
glycan array binding signal (z-score) [4]: -0.407
glycan array binding signal (z-score) [5]: -0.335
glycan array binding signal (z-score) [6]: -0.573
glycan array binding signal (z-score) [7]: -0.052
glycan array binding signal (z-score) [8]: 0.072
glycan array binding signal (z-score) [9]: -0.194
glycan array binding signal (z-score) [10]: 0.03
glycan array binding signal (z-score) [11]: -0.238
glycan array binding signal (z-score) [12]: -0.081
glycan array binding signal (z-score) [13]: -0.373
glycan array binding signal (z-score) [14]: 0.052
glycan array binding signal (z-score) [15]: 0.825
glycan array binding signal (z-score) [16]: -0.395
glycan array binding signal (z-score) [17]: 1.63
glycan array binding signal (z-score) [18]: 0.159
glycan array binding signal (z-score) [19]: -0.51
glycan array binding signal (z-score) [20]: 0.196
glycan array binding signal (z-score) [21]: 0.13
glycan array binding signal (z-score) [22]: -0.472
glycan array binding signal (z-score) [23]: 0.778
glycan array binding signal (z-score) [24]: -0.424
glycan array binding signal (z-score) [25]: 0.47
glycan array binding signal (z-score) [26]: -0.088
glycan array binding signal (z-score) [27]: -0.13
glycan array binding signal (z-score) [28]: -0.329
glycan array binding signal (z-score) [29]: 0.222
glycan array binding signal (z-score) [30]: -0.254
glycan array binding signal (z-score) [31]: -0.538
glycan array binding signal (z-score) [32]: 0.207
glycan array binding signal (z-score) [33]: -0.023
glycan array binding signal (z-score) [34]: -0.136
glycan array binding signal (z-score) [35]: 0.038
glycan array binding signal (z-score) [36]: 0.05
glycan array binding signal (z-score) [37]: 0.193
glycan array binding signal (z-score) [38]: -0.251
glycan array binding signal (z-score) [39]: 0.752
glycan array binding signal (z-score) [40]: 0.19
glycan array binding signal (z-score) [41]: -0.505
glycan array binding signal (z-score) [42]: -0.199
glycan array binding signal (z-score) [43]: -0.476
glycan array binding signal (z-score) [44]: -0.03
glycan array binding signal (z-score) [45]: -0.266
